According to PubChem BioAssay AID493027 (The Scripps Research Institute Molecular Screening Center, 2011):
Where “and” joins values, the source holds several entries; their conditions need not be identical. Equal values may be shown once. Out of some 2,000 compounds screened, about 45 (2%) were called active.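 How the source made its calls: active means inhibition above the screen-wide mean inhibition plus 3 SD (cut at about 44% in these data); inactive means the rest.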 The list shows a part of the results.

The chains behind the UniProt entries cited, without tags or fusion partners. Where a name states a change or a piece, a line headed by the entry shows the natural chain unless it says otherwise.
UniProt O60240: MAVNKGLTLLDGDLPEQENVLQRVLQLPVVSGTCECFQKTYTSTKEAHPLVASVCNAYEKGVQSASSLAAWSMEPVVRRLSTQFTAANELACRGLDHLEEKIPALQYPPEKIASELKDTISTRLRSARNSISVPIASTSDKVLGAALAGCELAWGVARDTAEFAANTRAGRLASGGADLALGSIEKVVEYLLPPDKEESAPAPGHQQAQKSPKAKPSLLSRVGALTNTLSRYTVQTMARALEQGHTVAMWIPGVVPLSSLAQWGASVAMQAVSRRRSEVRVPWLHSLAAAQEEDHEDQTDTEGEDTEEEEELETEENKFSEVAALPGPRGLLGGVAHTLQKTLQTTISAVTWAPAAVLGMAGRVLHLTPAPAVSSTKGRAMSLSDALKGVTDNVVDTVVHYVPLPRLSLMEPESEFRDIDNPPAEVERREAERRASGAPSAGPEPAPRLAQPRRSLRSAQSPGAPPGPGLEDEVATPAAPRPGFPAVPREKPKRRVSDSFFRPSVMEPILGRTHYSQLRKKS
UniProt Q8WTS1: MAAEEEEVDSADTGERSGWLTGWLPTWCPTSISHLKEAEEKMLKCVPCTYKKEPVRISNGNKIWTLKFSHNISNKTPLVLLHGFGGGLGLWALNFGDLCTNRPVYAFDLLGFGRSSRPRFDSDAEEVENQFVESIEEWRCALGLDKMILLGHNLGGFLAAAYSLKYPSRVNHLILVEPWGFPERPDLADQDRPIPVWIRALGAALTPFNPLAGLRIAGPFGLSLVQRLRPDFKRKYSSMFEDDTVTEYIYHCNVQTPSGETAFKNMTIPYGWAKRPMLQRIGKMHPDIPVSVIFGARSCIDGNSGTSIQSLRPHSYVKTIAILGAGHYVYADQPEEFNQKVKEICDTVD

Each compound was assayed against Perilipin-1 (Homo sapiens) + 1-acylglycerol-3-phosphate O-acyltransferase ABHD5 (Homo sapiens) (UniProt O60240+Q8WTS1) (assay: blockers of ABHD5 binding to perilipin-1 – cell lysate, split luciferase complementation, luminescence, NIH validation set, pilot screen (AID 493027;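 further: 0% = DMSO wells with the 100% control not disclosed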)). Conditions: split G. princeps luciferase complementation, 4 h; at 7.9 µM, active compounds read high.

inhibition, inactive:
Cc1nc(N[C@@H](Cc2c[nH]c3ccccc23)C(=O)O)c2oc3ccccc3c2n1 5.88%
CCOC(=O)N1CCc2[nH]c3ccc(C)cc3c2C1 18.8%
Oc1ccc(Oc2ncc(Cl)cc2Cl)cc1 -2.32%
CNCCCC12CCC(c3ccccc31)c1ccccc12 -8.78% and -2.5%
CCCCCC(=O)O[C@]1(C(C)=O)CC[C@H]2[C@@H]3CCC4=CC(=O)CC[C@]4(C)[C@H]3CC[C@@]21C 0.86%
Cc1ccc2[nH]c3c(=O)n(CCc4cnc[nH]4)cnc3c2c1 0.46%
COC(=O)C1=CN(Cc2cccs2)C=C(C(=O)OC)C1c1cccc(Cl)c1 11.1%
CC(C)NC[C@@H](O)c1ccc(O)c(O)c1 -21.4%
COc1ccc(S(N)(=O)=O)cc1C(N)=O -5.05%
CO[C@@H]1O[C@@H]2COC(c3ccccc3)O[C@@H]2[C@@H](OC)[C@@H]1O (some centres undefined) 0.52%
CC(=O)N1CCN(c2ccc(OC[C@H]3CO[C@](Cn4ccnc4)(c4ccc(Cl)cc4Cl)O3)cc2)CC1 21.4%
CC(=O)[C@H]1CC[C@H]2[C@@H]3CCC4=CC(=O)CC[C@]4(C)[C@H]3CC[C@]12C -3.47%
CN(C)CCOC(c1ccccc1)c1ccccc1 -7.45%
CN1CCc2cccc3c2[C@@H]1Cc1ccc(O)c(O)c1-3 12.5%
O=C(NCc1ccco1)/C(=C\C=C\c1ccccc1)NC(=O)c1ccccc1Br 15.9%
COc1ccc(C2NC(C(=O)O)Cc3c2[nH]c2ccccc32)cc1CN1CCN(c2ccc(F)cc2)CC1 (centres undefined) 3.66%
CSCCC1NC2(C(=O)Nc3ccc(Cl)cc32)[C@@H]2C(=O)N(C3CCCC3)C(=O)[C@H]12 (some centres undefined) -0.47%
CN1C2CCC1CC(OC(c1ccccc1)c1ccccc1)C2 (centres undefined) 1.58%
COc1cccc(OC)c1C(=O)Nc1nc2ccc([N+](=O)[O-])cc2s1 0.1%
CCC[C@@H]1C[C@@H](C(=O)N[C@H]([C@@H](C)O)[C@H]2O[C@H](SC)[C@H](O)[C@@H](O)C2O)N(C)C1 (some centres undefined) -11.3%
CCCN(CCC)S(=O)(=O)c1ccc(C(=O)O)cc1 2.83%
C[C@]12CC[C@@H]3c4ccc(O)cc4CC[C@H]3[C@@H]1CC[C@@H]2O 0.73%
CC(NC(=O)OCc1ccccc1)C(=O)N1CC(O)CC1C(=O)O (centres undefined) -6.96%
CC(NC(=O)c1ccc(N2CCNCC2)c([N+](=O)[O-])c1)C12CC3CC(CC(C3)C1)C2 (centres undefined) -0.37%
Cn1c(=O)oc2cc(S(=O)(=O)N3CCc4ccccc4C3)ccc21 -1.46%
CN(C)CCN(Cc1ccccc1)c1ccccn1 -7.62%
CC1(C)C(=O)OC(c2cccs2)C2(CCCCC2)C1=O (centres undefined) -2.96%
C=CCN1C(=O)c2oc3ccccc3c(=O)c2C1c1ccc(O)c(OC)c1 (centres undefined) 5.81%
COc1cccc2c(=O)c3ccccc3oc12 -14.7%
O=c1cnn([C@@H]2O[C@H](CO)[C@@H](O)[C@H]2O)c(=O)[nH]1 -8.69%
CC1=CC(C)(C)N2C(=O)C3(NCCc4c3[nH]c3ccccc43)c3cc(C)cc1c32 (centres undefined) 8.09%
COc1ccc(CC(=O)N2CC3(C)CC2CC(C)(C)C3)cc1OC (centres undefined) -9.37%
O=C(/C=C/c1ccco1)NCc1ccc2c(c1)OCO2 12.9%
O=C(Nc1ccc(Cl)cn1)Nc1ccccc1Cl -3.38%
C[N+](C)(C)CCCCCCCCCC[N+](C)(C)C -5.57%
O=C(O)/C=C/c1ccc(O)c(O)c1 -2.22%
O=C(/C=C/c1ccco1)N1CCN(c2ccccc2)CC1 4.55%
CN1C(=O)C(O)(CC(=O)c2ccccc2O)c2cc(Br)ccc21 (centres undefined) 5.1%
COc1cc2c(cc1OC)C(=S)NC(C)(C)C2 2.14%
COc1ccc(C2NC(=O)c3ccccc3N2)cc1OC (centres undefined) -0.79%
O=C(O)C1Sc2[nH]c(=O)sc2C2c3ccc(O)cc3OC(=O)C12 (centres undefined) -6.65%
Fc1ccc(NC(=S)Nc2ccccc2Cl)cc1 -9.16%
CC(=O)OC[C@H]1O[C@@H](n2ncc(=O)[nH]c2=O)[C@H](OC(C)=O)[C@@H]1OC(C)=O 1.76%
COc1ccc(C(=O)Oc2ccc3c(C)cc(=O)oc3c2C(C)=O)cc1 0.69%
NS(=O)(=O)c1ccc(CNC(=O)c2cc(-c3ccccc3)nc3ccccc23)cc1 10.2%
COc1cc(OC)c(C2C(C#N)=C(N)OC3=C2C(=O)CC(C)(C)C3)cc1OC (centres undefined) -0.37%
O=C1C(=O)c2ccccc2C(O)=C1c1ccccc1F -3.35%
COCCOC(=O)c1c(C)oc2ccc(OCc3cc(C(=O)OC)oc3C)cc12 -4.12%
COc1cc(C(=O)NCCCCCC(=O)O)cc(OC)c1OC 1.01%
CCO/C([O-])=N/c1c[n+](N2CCOCC2)no1 -8.54%
COc1ccc(CCNc2ncnc3c2[nH]c2cc(OC)c(OC)cc23)cc1OC 4.41%
CCCCCC#CCC#CCC#CCC#CCCCC(=O)O 34.5%
Cc1cc(=O)oc2cc(OC(C)C(=O)NCC3CCCO3)ccc12 (centres undefined) 0.51%
CC1=C(/C=C/C(C)=C/C=C/C(C)=C/C(=O)O)C(C)(C)CCC1 6.99%
O=C(Nc1ccccc1)c1ccccc1CCc1ccccc1 -0.9%
Cc1ccc(CN2CCN(CCCc3ccccc3)CC2CCO)cc1 (centres undefined) -7.7%
CCN(Cc1cnn(C)c1)Cc1nc(C(c2ccccc2)c2ccccc2)no1 5.41%
Cc1[nH]c2ccccc2c1/C=C/c1nc2ccccc2c(=O)n1CCO 21%
COc1ccc2[nH]cc(C(=O)CCl)c2c1 11.6%
CCN1C(=O)C(CC(=O)Nc2ccc(F)cc2)N(Cc2ccco2)C1=S (centres undefined) 10.9%
Nc1cccc(C(=O)O)c1 -8.92%
COc1cc(CNCc2ccc(OC)c(OC)c2OC)cc(OC)c1 -5.93%
COc1ccc2c(c1OC)C(=O)OC2C1c2c(cc3c(c2OC)OCO3)CCN1C (centres undefined) -9.43%
CCCN1C[C@H](CSC)C[C@@H]2c3cccc4[nH]cc(c34)C[C@H]21 3.13%
COc1ccc(CCNC(=O)c2ccc(Cl)cc2)cc1OC -5.87%
CCC(=O)Oc1ccc(/C(CC)=C(\CC)c2ccc(OC(=O)CC)cc2)cc1 8.03%
COc1ccc(C2N3CC4(C)CN2CC(C)(C3)C4)cc1OC (centres undefined) -2.9%
Cc1ccc2c(c1)c1c3n2CCCNC3CCC1 (centres undefined) 0.07%
O=C(NCc1ccc(N2CCCC2=O)cc1)c1cccc(Cl)c1 -3.89%
CC(=O)N(CCC(Cc1ccccc1)c1ccco1)Cc1ccco1 (centres undefined) 40.8%
C[C@]12CC[C@@H]3c4ccc(O)cc4CC[C@H]3[C@@H]1CC[C@@H]2OC(=O)CCC(=O)O 9.67%
CN(C)CCCN1c2ccccc2Sc2ccccc21 -3.33%
Cn1c(SCC(=O)c2ccccc2)nnc1-c1ccncc1 -5.1%
COc1ccc(N2C(=O)[C@@H]3[C@H](C2=O)[C@H]2c4ccccc4C=CN2[C@@H]3C(C)=O)cc1 -4.08%
Cc1cc(C(C)(C)C)c(O)c(C)c1CC1=NCCN1 -2.1%
Nc1c(C(=O)c2ccccc2)oc2ccccc12 4.15%
CC(CCc1ccccc1)NCC(O)c1ccc(O)c(C(N)=O)c1 (centres undefined) -4.1%
Cc1ccc(Cl)c(OCCCN(C)Cc2ccccc2)c1 -5.48%
CCc1cc2c(=O)c(-c3ccc4c(c3)OCCO4)coc2c(CN2CCCCC2C)c1O (centres undefined) 19.6%
Cc1[nH]nc(-c2ccc(O)cc2O)c1Oc1ccccc1 14.4%
C[C@]12CCC(=O)C=C1[C@H](O)C[C@@H]1[C@@H]2[C@@H](O)C[C@@]2(C)[C@H]1CC[C@]2(O)C(=O)CO -8.52%
Cc1oncc1C(=O)Nc1ccc(C(F)(F)F)cc1 -4.11%
COc1ccc(C(Cl)=C(c2ccc(OC)cc2)c2ccc(OC)cc2)cc1 -7.66%
O=C(O)c1cccnc1Nc1cccc(C(F)(F)F)c1 3.88%
O=C(NCc1ccccc1Cl)NC(=O)c1ccccc1 -2.42%
CC[N+](C)(C)Cc1ccccc1Br -3.45%
CC1(C)Oc2ccc(C#N)cc2[C@@H](N2CCCC2=O)[C@@H]1O 0.57%
CCN1C(=O)C(CC(=O)Nc2ccc(OC)cc2)N(CCc2ccc(F)cc2)C1=S (centres undefined) 9.51%
OCCC1CN(Cc2nc(-c3ccccc3)cs2)CCN1Cc1ccc(F)cc1 (centres undefined) -1.6%
c1ccc2c(c1)CCOC2CNCCCN1CCCCC1 (centres undefined) -15.9%
N/C(Cc1ccc(Cl)cc1Cl)=N\OC(=O)c1ccc(Br)o1 -0.38%
CN(Cc1c(C(=O)N(C)Cc2ccccc2)nc2ccccn12)CC1Cc2ccccc2O1 (centres undefined) 4.92%
Nc1nc(Cl)nc2c1ncn2[C@H]1C[C@H](O)[C@@H](CO)O1 -3.81%
O=C(O)[C@@H](O)c1ccccc1 -1.6%

4 neighbouring compounds out of the list so far, for reference:
inhibition, inactive:
C[N+](C)(C)CCCCCCCCCC[N+](C)(C)C -5.57%
O=C(O)/C=C/c1ccc(O)c(O)c1 -2.22%
O=C(/C=C/c1ccco1)N1CCN(c2ccccc2)CC1 4.55%
CN1C(=O)C(O)(CC(=O)c2ccccc2O)c2cc(Br)ccc21 (centres undefined) 5.1%
